PubChem BioAssay AID504784, Drosophila RNAi Screening Center, 2011

- Assay: 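Fly genes whose silencing alters how much lipid cells keep in droplets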 (primary screen)
- Cell system: Drosophila Kc167 embryonic cells
- Reagents: long dsRNA against Drosophila genes, about 250 ng dsRNA per well
- Duration: 4 days
- Treatment: cells fed 400 µM oleic acid bound to BSA
- Read-out: 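Microscope images give a droplet-to-nucleus area ratio, taken as log and converted to a screen-wide B-score; higher values mean greater lipid storage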
- Scale: droplet/nuclear area B-score: higher = more stored lipid (overstorage)
The screen tested about 17,000 reagents; this is an unselected part of those that have a named target and a result. 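Each column is one replicate's B-score; the combined score over replicates was not deposited, so single values may mislead.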 Reagents against one gene are numbered here. Not all columns of the deposit are shown.

{"predicted target": "Gyc32E (GeneID 34553)", "reagent no.": 1, "droplet/nuclear area B-score, replicate 1": -0.312}
{"predicted target": "CG15728 (GeneID 32214)", "reagent no.": 1, "droplet/nuclear area B-score, replicate 1": 0.556}
{"predicted target": "CG15728 (GeneID 32214)", "reagent no.": 2, "droplet/nuclear area B-score, replicate 1": -2.33}
{"predicted target": "Trmt6 (GeneID 33920)", "reagent no.": 1, "droplet/nuclear area B-score, replicate 1": 1.04}
{"predicted target": "Obp83b (GeneID 40738)", "reagent no.": 1, "droplet/nuclear area B-score, replicate 1": -0.249}
{"predicted target": "CG8072 (GeneID 39181)", "reagent no.": 1, "droplet/nuclear area B-score, replicate 1": 1.17}
{"predicted target": "Gr61a (GeneID 38098)", "reagent no.": 1, "droplet/nuclear area B-score, replicate 1": -1.46}
{"predicted target": "CG10510 (GeneID 40341)", "reagent no.": 1, "droplet/nuclear area B-score, replicate 1": -0.163}
{"predicted target": "CG12951 (GeneID 41110)", "reagent no.": 1, "droplet/nuclear area B-score, replicate 1": -1.66}

Next part, starting with the last 2 of the part before.
{"predicted target": "CG10510 (GeneID 40341)", "reagent no.": 1, "droplet/nuclear area B-score, replicate 1": -0.163}
{"predicted target": "CG12951 (GeneID 41110)", "reagent no.": 1, "droplet/nuclear area B-score, replicate 1": -1.66}
{"predicted target": "cato (GeneID 36813)", "reagent no.": 1, "droplet/nuclear area B-score, replicate 1": 0.193}
{"predicted target": "CG4424 (GeneID 42390)", "reagent no.": 1, "droplet/nuclear area B-score, replicate 1": 0.194}
{"predicted target": "Fic (GeneID 33897)", "reagent no.": 1, "droplet/nuclear area B-score, replicate 1": -0.673}
{"predicted target": "repo (GeneID 47285)", "reagent no.": 1, "droplet/nuclear area B-score, replicate 1": 2.74}
{"predicted target": "repo (GeneID 47285)", "reagent no.": 2, "droplet/nuclear area B-score, replicate 1": -1.82}
{"predicted target": "CG15144 (GeneID 35063)", "reagent no.": 1, "droplet/nuclear area B-score, replicate 1": 2.38}
{"predicted target": "spoon (GeneID 31459)", "reagent no.": 1, "droplet/nuclear area B-score, replicate 1": 1.81}
